Earlier results in patent publication US20040110781A1 (priority 2002, published 2004).
Some of these results come from one statement about several compounds together.

System: excitory opioid receptors on sensory neurons

## O=C1CC[C@@]2(O)[C@H]3Cc4ccc(O)c5c4[C@@]2(CCN3CC2CC2)[C@H]1O5 [naltrexone]
  concentration for selective block of the excitory effects of morphine, relative to the high concentrations that block both inhibitory and excitory effects: > 1,000 fold lower concentrations
